{"sequences": {"note": "The chains behind the UniProt entries cited, without tags or fusion partners. Residues count along the entry.", "UniProt P11021, residues 19-654": "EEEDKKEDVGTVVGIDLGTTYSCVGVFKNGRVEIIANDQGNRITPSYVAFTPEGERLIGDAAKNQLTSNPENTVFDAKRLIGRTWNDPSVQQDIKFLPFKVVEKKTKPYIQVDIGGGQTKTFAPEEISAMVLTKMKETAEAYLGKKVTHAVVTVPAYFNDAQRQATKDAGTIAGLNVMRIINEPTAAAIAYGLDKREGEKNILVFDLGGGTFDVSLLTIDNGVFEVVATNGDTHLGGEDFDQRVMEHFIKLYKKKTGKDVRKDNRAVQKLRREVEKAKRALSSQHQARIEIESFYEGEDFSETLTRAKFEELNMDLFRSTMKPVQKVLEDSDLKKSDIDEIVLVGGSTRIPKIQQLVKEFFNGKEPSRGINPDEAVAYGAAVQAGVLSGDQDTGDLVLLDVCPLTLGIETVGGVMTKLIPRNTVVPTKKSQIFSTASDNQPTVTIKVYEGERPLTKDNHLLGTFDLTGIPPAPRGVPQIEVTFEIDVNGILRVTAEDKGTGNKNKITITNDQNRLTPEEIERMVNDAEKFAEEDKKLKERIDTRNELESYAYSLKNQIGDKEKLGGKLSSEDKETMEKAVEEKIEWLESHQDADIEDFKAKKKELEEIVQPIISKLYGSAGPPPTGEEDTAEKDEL", "UniProt Q00610": "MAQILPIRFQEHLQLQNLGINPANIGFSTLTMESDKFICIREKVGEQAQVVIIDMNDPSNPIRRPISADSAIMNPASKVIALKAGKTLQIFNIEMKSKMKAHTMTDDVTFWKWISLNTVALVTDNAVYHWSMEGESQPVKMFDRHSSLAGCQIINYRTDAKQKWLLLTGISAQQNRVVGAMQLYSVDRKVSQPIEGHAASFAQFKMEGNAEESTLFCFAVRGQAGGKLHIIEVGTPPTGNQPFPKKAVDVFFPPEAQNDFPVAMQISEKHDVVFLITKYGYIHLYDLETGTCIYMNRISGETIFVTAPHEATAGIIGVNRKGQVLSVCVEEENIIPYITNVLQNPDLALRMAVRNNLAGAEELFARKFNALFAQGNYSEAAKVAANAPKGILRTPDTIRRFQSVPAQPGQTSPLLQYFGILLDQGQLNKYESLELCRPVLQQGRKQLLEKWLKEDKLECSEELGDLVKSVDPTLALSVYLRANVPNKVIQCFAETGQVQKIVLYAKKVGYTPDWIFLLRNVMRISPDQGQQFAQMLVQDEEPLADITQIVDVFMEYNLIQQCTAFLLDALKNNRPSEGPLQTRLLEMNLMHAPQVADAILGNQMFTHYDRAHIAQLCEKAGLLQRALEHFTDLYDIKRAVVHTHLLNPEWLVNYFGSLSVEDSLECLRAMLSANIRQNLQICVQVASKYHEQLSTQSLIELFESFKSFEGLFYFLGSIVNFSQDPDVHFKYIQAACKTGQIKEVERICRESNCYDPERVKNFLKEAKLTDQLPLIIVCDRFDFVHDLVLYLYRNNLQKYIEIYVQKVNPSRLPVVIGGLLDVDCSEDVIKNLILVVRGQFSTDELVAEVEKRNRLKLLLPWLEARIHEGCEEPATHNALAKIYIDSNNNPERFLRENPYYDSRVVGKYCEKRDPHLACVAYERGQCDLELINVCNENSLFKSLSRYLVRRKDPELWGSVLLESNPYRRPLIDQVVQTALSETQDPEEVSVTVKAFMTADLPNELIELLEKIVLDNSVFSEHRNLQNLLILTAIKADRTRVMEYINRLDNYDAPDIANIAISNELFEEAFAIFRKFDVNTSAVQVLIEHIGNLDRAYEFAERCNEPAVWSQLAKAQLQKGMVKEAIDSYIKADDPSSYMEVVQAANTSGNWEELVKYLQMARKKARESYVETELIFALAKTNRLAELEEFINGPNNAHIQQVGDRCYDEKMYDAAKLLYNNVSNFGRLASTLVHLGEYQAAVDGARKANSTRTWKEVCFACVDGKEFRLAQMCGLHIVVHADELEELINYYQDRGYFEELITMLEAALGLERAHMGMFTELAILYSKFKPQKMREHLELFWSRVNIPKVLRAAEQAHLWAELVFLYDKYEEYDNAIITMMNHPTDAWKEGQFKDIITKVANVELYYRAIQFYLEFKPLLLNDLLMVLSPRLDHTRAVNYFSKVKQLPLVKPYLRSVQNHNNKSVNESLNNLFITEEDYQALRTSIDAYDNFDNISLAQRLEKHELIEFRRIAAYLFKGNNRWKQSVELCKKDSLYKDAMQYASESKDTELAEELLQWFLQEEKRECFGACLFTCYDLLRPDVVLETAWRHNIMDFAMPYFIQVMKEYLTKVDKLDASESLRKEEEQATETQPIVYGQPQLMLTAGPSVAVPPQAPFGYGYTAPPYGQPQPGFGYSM", "UniProt Q9UJS0": "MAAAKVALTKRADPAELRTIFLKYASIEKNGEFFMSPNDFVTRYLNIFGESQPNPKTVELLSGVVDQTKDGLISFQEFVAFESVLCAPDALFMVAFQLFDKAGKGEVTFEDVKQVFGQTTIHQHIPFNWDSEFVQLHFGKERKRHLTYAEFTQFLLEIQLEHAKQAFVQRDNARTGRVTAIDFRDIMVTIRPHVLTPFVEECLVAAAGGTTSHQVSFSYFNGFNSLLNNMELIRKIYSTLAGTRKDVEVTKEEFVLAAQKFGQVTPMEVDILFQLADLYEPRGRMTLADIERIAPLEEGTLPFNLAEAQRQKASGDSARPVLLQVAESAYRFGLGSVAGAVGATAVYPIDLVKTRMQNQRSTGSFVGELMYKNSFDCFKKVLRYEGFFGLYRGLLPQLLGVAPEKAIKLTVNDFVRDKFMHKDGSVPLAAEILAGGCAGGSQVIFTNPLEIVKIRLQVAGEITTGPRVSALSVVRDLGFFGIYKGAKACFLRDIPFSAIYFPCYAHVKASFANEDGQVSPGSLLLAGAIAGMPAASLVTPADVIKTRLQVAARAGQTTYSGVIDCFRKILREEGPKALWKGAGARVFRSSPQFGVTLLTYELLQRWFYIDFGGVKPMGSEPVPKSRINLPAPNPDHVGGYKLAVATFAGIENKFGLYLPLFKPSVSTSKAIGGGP", "UniProt O60506": "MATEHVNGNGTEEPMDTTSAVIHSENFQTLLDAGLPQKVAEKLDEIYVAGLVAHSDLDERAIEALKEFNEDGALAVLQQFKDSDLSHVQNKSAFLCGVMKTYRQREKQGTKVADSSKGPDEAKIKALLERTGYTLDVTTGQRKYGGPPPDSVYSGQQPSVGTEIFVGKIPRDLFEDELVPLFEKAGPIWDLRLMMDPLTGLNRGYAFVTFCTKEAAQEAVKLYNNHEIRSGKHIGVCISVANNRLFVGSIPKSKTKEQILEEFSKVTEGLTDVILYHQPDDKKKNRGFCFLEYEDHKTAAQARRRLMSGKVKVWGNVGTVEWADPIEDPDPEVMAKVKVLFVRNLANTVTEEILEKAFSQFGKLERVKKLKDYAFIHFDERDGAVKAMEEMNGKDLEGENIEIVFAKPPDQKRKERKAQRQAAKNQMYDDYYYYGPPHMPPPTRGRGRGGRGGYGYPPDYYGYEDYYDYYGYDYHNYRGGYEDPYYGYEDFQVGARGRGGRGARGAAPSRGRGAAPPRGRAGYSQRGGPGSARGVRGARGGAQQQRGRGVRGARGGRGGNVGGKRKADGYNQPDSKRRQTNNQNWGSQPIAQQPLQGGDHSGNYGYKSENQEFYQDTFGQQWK", "UniProt P48681": "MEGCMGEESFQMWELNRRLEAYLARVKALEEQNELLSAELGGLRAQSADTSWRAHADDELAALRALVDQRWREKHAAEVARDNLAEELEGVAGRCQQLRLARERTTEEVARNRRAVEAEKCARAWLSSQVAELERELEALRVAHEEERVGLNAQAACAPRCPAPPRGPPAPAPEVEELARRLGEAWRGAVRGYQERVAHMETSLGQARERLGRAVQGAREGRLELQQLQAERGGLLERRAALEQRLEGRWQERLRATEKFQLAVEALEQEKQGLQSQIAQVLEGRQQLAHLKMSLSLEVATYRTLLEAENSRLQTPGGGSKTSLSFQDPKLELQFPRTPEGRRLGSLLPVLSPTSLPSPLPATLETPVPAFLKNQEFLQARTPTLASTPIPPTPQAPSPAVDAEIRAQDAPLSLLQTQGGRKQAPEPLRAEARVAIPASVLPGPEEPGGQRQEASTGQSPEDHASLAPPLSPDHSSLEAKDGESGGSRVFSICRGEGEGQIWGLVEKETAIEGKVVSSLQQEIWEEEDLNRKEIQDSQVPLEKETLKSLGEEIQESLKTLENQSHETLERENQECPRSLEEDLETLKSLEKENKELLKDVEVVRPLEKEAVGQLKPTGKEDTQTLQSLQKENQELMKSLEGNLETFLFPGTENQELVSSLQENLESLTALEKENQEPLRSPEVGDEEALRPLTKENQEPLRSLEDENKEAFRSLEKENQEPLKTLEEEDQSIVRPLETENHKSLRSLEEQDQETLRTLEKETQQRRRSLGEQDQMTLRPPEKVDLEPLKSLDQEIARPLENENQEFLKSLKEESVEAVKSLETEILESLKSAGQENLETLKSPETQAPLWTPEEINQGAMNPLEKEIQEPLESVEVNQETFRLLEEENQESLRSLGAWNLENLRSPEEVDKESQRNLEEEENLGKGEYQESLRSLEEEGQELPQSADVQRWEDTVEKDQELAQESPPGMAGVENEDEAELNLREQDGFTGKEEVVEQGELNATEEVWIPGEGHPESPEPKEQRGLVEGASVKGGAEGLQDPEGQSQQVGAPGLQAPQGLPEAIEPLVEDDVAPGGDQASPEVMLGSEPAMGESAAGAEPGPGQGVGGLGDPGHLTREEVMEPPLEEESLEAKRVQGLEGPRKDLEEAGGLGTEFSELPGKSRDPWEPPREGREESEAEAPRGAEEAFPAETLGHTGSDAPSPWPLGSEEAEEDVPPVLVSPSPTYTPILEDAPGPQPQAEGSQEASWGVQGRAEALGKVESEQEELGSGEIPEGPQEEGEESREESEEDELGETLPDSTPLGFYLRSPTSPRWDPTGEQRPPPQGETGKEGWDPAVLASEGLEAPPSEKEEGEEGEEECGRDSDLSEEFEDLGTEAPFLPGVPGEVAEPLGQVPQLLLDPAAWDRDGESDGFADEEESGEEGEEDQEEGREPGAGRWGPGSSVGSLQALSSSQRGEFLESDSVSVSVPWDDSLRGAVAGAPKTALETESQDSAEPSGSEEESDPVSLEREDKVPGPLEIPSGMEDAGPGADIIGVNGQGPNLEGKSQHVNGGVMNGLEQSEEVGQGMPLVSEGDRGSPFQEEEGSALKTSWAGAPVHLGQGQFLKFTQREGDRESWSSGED", "UniProt P27824, residues 21-592": "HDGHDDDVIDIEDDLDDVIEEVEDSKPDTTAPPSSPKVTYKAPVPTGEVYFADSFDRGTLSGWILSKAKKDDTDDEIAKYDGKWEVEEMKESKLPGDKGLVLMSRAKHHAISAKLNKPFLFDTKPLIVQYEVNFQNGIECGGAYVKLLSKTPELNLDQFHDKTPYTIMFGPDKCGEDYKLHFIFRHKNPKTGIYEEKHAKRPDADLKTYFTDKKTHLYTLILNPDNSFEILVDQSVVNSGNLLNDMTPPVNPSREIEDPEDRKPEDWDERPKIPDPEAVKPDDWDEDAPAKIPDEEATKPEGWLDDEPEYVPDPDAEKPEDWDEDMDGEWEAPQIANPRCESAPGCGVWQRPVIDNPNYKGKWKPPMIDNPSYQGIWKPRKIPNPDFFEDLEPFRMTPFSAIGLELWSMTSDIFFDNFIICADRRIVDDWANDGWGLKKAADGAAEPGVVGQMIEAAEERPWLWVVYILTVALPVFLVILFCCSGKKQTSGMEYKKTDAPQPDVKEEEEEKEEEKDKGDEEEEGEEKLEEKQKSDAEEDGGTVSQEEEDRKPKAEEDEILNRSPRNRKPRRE", "UniProt P07237, residues 18-508": "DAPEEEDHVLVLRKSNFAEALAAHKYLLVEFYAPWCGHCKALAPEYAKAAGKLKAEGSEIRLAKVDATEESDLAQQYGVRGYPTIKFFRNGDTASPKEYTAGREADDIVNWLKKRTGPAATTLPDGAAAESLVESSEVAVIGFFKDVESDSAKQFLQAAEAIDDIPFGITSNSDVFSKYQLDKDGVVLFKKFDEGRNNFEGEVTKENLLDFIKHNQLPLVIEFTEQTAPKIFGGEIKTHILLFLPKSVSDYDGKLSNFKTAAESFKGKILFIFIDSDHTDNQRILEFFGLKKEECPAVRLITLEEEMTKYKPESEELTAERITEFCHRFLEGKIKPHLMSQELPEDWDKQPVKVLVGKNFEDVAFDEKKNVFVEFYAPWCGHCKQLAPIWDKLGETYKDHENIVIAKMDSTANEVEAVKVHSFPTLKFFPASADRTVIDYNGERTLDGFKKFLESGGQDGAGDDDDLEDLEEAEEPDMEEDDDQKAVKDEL"}, "source": "paper PMC4686535", "key": {"[1]": {"molecular_target": "T1, wild type US2 with three HA tags added to the C-terminus (human cytomegalovirus) (UniProt P09713)", "T1 sequence": "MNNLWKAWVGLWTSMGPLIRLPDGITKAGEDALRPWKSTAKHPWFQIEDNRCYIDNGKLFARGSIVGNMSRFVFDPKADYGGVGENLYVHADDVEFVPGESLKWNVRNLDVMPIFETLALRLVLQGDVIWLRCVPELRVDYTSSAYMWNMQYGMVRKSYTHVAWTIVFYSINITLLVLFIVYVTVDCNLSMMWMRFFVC", "test": "affinity purification with mass spectrometry; stable U373-MG lines (US2-3xHA with nonsense shRNA, CypC knock-down or CypC overexpression; US2 + HA-HLA-A68), 8 h 25 uM MG132, lysed in 1% digitonin, anti-HA agarose beads, LC-MS/MS (Orbitrap Elite), background of U373-MG + nonsense shRNA cells subtracted"}, "[2]": {"molecular_target": "T1, wild type US2 with three HA tags added to the C-terminus (human cytomegalovirus)", "test": "affinity purification with mass spectrometry; stable U373-MG lines (US2-3xHA with nonsense shRNA, CypC knock-down or CypC overexpression; US2 + HA-HLA-A68), 8 h 25 uM MG132, lysed in 1% digitonin, anti-HA agarose beads, LC-MS/MS (Orbitrap Elite), background of U373-MG + nonsense shRNA cells subtracted", "remark": "listed apart in the source"}}, "note": "Read-outs that look alike come from different tables or passages of the source. Results are given in words; binding and its absence hold for the method and conditions named. Binding seen in cells or lysates may run through a third protein. These calls come from enrichment with a bait or labelling near it, and not all partners need be listed. Sequences can lack the tags named with a protein.", "data": [{"molecule": "BiP (from UniProt P11021 19-654)", "values": [{"measurement": "binding", "setting": "[1]", "result": "binds"}]}, {"molecule": "CLH1 (CLTC) (from UniProt Q00610 1-1675)", "values": [{"measurement": "binding", "setting": "[1]", "result": "binds"}]}, {"molecule": "CMC2 (SLC25A13) (from UniProt Q9UJS0 1-675)", "values": [{"measurement": "binding", "setting": "[1]", "result": "binds"}]}, {"molecule": "HNRPQ (SYNCRIP) (from UniProt O60506 1-623)", "values": [{"measurement": "binding", "setting": "[1]", "result": "binds"}]}, {"molecule": "NEST (NES) (from UniProt P48681 1-1621)", "values": [{"measurement": "binding", "setting": "[1]", "result": "binds"}]}, {"molecule": "calnexin (from UniProt P27824 21-592)", "values": [{"measurement": "binding", "setting": "[1]", "result": "binds"}]}, {"molecule": "calreticulin (from UniProt P27797 18-417)", "values": [{"measurement": "binding", "setting": "[1]", "result": "binds"}]}, {"molecule": "p97 (TERA) (from UniProt P55072 1-806)", "values": [{"measurement": "binding", "setting": "[1]", "result": "binds"}]}, {"molecule": "protein disulfide isomerase (from UniProt P07237 18-508) (enzyme)", "values": [{"measurement": "binding", "setting": "[1]", "result": "binds"}]}, {"molecule": "TMEM33 (protein, UniProt P57088 1-247) MADTTPNGPQGAGAVQFMMTNKLDTAMWLSRLFTVYCSALFVLPLLGLHEAASFYQRALLANALTSALRLHQRLPHFQLSRAFLAQALLEDSCHYLLYSLIFVNSYPVTMSIFPVLLFSLLHAATYTKKVLDARGSNSLPLLRSVLDKLSANQQNILKFIACNEIFLMPATVFMLFSGQGSLLQPFIYYRFLTLRYSSRRNPYCRTLFNELRIVVEHIIMKPACPLFVRRLCLQSIAFISRLAPTVP", "values": [{"measurement": "binding", "setting": "[2]", "result": "binds"}]}, {"molecule": "PDIA6 (enzyme, UniProt Q15084 20-440) LYSSSDDVIELTPSNFNREVIQSDSLWLVEFYAPWCGHCQRLTPEWKKAATALKDVVKVGAVDADKHHSLGGQYGVQGFPTIKIFGSNKNRPEDYQGGRTGEAIVDAALSALRQLVKDRLGGRSGGYSSGKQGRSDSSSKKDVIELTDDSFDKNVLDSEDVWMVEFYAPWCGHCKNLEPEWAAAASEVKEQTKGKVKLAAVDATVNQVLASRYGIRGFPTIKIFQKGESPVDYDGGRTRSDIVSRALDLFSDNAPPPELLEIINEDIAKRTCEEHQLCVVAVLPHILDTGAAGRNSYLEVLLKLADKYKKKMWGWLWTEAGAQSELETALGIGGFGYPAMAAINARKMKFALLKGSFSEQGINEFLRELSFGRGSTAPVGGGAFPTIVEREPWDGRDGELPVEDDIDLSDVELDDLGKDEL", "values": [{"measurement": "binding", "setting": "[2]", "result": "binds"}]}, {"molecule": "THY1 (protein, UniProt P04216 20-130) QKVTSLTACLVDQSLRLDCRHENTSSSPIQYEFSLTRETKKHVLFGTVGVPEHTYRSRTNFTSKYNMKVLYLSAFTSKDEGTYTCALHHSGHSPPISSQNVTVLRDKLVKC", "values": [{"measurement": "binding", "setting": "[2]", "result": "binds"}]}]}
